The list shows a part of the results.
Experiments:
Test in all cases: glycan array binding signal (z-score within array); higher = stronger binding
Conditions in all cases: glycan notation: IUPAC condensed, linker removed
[1] = target: Neu5Ac(a2-6)GlcNAc(b1-4)GlcNAc(b1-4)GlcNAc
How it was run: (§1)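 Glycan array data came from 3228 arrays in the Consortium for Functional Glycomics database, and only arrays with an available protein sequence were kept. Glycan names were put into IUPAC-condensed notation, and columns mapping to the same glycan were averaged. The binding signal is a within-array Z-score, averaged across arrays of one protein sequence run at different concentrations or buffers and across linkers. A negative Z-score can be read as non-binding.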

Neu5Ac(a2-8)Neu5Ac = target: Neu5Ac(a2-8)Neu5Ac
How it was run: as §1

[2] = target: Neu5Ac(a2-8)Neu5Ac(a2-3)Gal(b1-3)GalNAc(b1-4)[Neu5Ac(a2-3)]Gal(b1-4)Glc
How it was run: as §1

[3] = target: Neu5Ac(a2-8)Neu5Ac(a2-3)Gal(b1-3)GalNAc(b1-4)[Neu5Ac(a2-8)Neu5Ac(a2-3)]Gal(b1-4)Glc
How it was run: as §1

[4] = target: Neu5Ac(a2-8)Neu5Ac(a2-3)Gal(b1-4)Glc
How it was run: as §1

[5] = target: Neu5Ac(a2-8)Neu5Ac(a2-3)Gal(b1-4)GlcNAc
How it was run: as §1

[6] = target: Neu5Ac(a2-8)Neu5Ac(a2-3)[Gal(b1-3)GalNAc(b1-4)]Gal(b1-4)Glc
How it was run: as §1

[7] = target: Neu5Ac(a2-8)Neu5Ac(a2-3)[GalNAc(b1-4)]Gal(b1-4)Glc
How it was run: as §1

[8] = target: Neu5Ac(a2-8)Neu5Ac(a2-8)Neu5Ac
How it was run: as §1

[9] = target: Neu5Ac(a2-8)Neu5Ac(a2-8)Neu5Ac(a2-3)Gal(b1-4)Glc
How it was run: as §1

[10] = target: Neu5Ac(a2-8)Neu5Ac(a2-8)Neu5Ac(a2-3)[Gal(b1-3)GalNAc(b1-4)]Gal(b1-4)Glc
How it was run: as §1

[11] = target: Neu5Ac(a2-8)Neu5Ac(a2-8)Neu5Ac(a2-3)[GalNAc(b1-4)]Gal(b1-4)Glc
How it was run: as §1

[12] = target: Neu5Ac(a2-8)Neu5Ac(a2-8)Neu5Ac(a2-8)Neu5Ac(a2-3)[GalNAc(b1-4)]Gal(b1-4)Glc
How it was run: as §1

[13] = target: Neu5Ac(a2-8)Neu5Gc(a2-3)Gal(b1-4)GlcNAc
How it was run: as §1

[14] = target: Neu5Ac(b2-6)Gal(b1-4)GlcNAc
How it was run: as §1

Neu5Ac(b2-6)GalNAc = target: Neu5Ac(b2-6)GalNAc
How it was run: as §1

[15] = target: Neu5Ac9Ac(a2-3)Gal(b1-3)GlcNAc
How it was run: as §1

[16] = target: Neu5Ac9Ac(a2-3)Gal(b1-4)GlcNAc
How it was run: as §1

[17] = target: Neu5Ac9Ac(a2-6)Gal(b1-4)GlcNAc
How it was run: as §1

[18] = target: Neu5Gc(a2-3)Gal(b1-3)GlcNAc
How it was run: as §1

[19] = target: Neu5Gc(a2-3)Gal(b1-3)[Fuc(a1-4)]GlcNAc
How it was run: as §1

Neu5Gc(a2-3)Gal(b1-4)Glc = target: Neu5Gc(a2-3)Gal(b1-4)Glc
How it was run: as §1

[20] = target: Neu5Gc(a2-3)Gal(b1-4)GlcNAc
How it was run: as §1

[21] = target: Neu5Gc(a2-3)Gal(b1-4)GlcNAc(b1-3)Gal(b1-4)GlcNAc(b1-2)Man(a1-3)[Neu5Gc(a2-3)Gal(b1-4)GlcNAc(b1-3)Gal(b1-4)GlcNAc(b1-2)Man(a1-6)]Man(b1-4)GlcNAc(b1-4)GlcNAc
How it was run: as §1

[22] = target: Neu5Gc(a2-3)Gal(b1-4)[Fuc(a1-3)]GlcNAc
How it was run: as §1

[23] = target: Neu5Gc(a2-6)Gal(b1-4)GlcNAc
How it was run: as §1

Neu5Gc(a2-6)GalNAc = target: Neu5Gc(a2-6)GalNAc
How it was run: as §1

[24] = target: Neu5Gc(a2-8)Neu5Ac(a2-3)Gal(b1-4)GlcNAc
How it was run: as §1

[25] = target: Neu5Gc(a2-8)Neu5Gc(a2-3)Gal(b1-4)GlcNAc
How it was run: as §1

[26] = target: Neu5Gc(a2-8)Neu5Gc(a2-3)Gal(b1-4)GlcNAc(b1-3)Gal(b1-4)GlcNAc
How it was run: as §1

[27] = target: Neu5Gc(a2-8)Neu5Gc(a2-6)Gal(b1-4)GlcNAc
How it was run: as §1

[28] = target: Neu5Gc(b2-6)Gal(b1-4)GlcNAc
How it was run: as §1

B1: PX15642A-pgi-501-20-501 (Parabacteroides gingivalis) (protein)
chain: CELDRDPEGKDFQQPYTSFVQTKQNRDGLYALLRNTENPRMHFYQELQSDMYCTTITDGNSLAPFVNWDLGILNDHGRADEDEVSGIAGYYFVYNRLNQQANAFVNNTEAALQNQVYKNSTEIANAKSFLAEGKVLQALAIWRLMDRFSFHESVTEVNSGAKDLGVILLKEYNPGYIGPRATKAQCYDYILSRLSEAIEVLPENRESVLYVSRDYAYALRARIYLALGEYGKAAADAKMVVDKYPLIGAADASEFENIYRSDANNPEIIFRGFASATLGSFTATTLNGAAPAGKDIKYNPSAVPFQWVVDLYENEDFRKSVYIAKVVKKDKGYLVNKFLEDKAYRDVQDKPNLKVGARYFSVAEVYLILVESALQTGDTPTAEKYLKALSKARGAEVSVVNMEALQAERTRELIGEGSRLRDMVRWSIPNNHDAFETQPGLEGFANTTPLKAQAPVGFYAYTWEFPQRDRQTNPQLIKNWPI
[1]
  glycan array binding signal (z-score): -0.634
Neu5Ac(a2-8)Neu5Ac
  glycan array binding signal (z-score): -0.193
[2]
  glycan array binding signal (z-score): -0.631
[3]
  glycan array binding signal (z-score): 1.23
[4]
  glycan array binding signal (z-score): 0.138
[5]
  glycan array binding signal (z-score): 0.498
[6]
  glycan array binding signal (z-score): -0.008
[7]
  glycan array binding signal (z-score): -0.038
[8]
  glycan array binding signal (z-score): -0.6
[9]
  glycan array binding signal (z-score): -0.727
[10]
  glycan array binding signal (z-score): 1.75
[11]
  glycan array binding signal (z-score): 0.122
[12]
  glycan array binding signal (z-score): -0.359
[13]
  glycan array binding signal (z-score): 15.5
[14]
  glycan array binding signal (z-score): -0.299
Neu5Ac(b2-6)GalNAc
  glycan array binding signal (z-score): -0.953
[15]
  glycan array binding signal (z-score): -0.475
[16]
  glycan array binding signal (z-score): -1.35
[17]
  glycan array binding signal (z-score): -0.226
[18]
  glycan array binding signal (z-score): -0.349
[19]
  glycan array binding signal (z-score): -0.342
Neu5Gc(a2-3)Gal(b1-4)Glc
  glycan array binding signal (z-score): -0.465
[20]
  glycan array binding signal (z-score): -0.856
[21]
  glycan array binding signal (z-score): 0.077
[22]
  glycan array binding signal (z-score): -0.476
[23]
  glycan array binding signal (z-score): -1.13
Neu5Gc(a2-6)GalNAc
  glycan array binding signal (z-score): -0.199
[24]
  glycan array binding signal (z-score): -0.384
[25]
  glycan array binding signal (z-score): -0.59
[26]
  glycan array binding signal (z-score): -0.437
[27]
  glycan array binding signal (z-score): -0.753
[28]
  glycan array binding signal (z-score): -0.608

From the supplement of paper PMC8728848
